From paper PMC5608947
These are yes or no findings as the source states them, for the method shown. In cells and extracts the contact can be indirect. Some entries that bind do so weakly or less than the wild type. Sequences can lack the tags named with a protein.

Target: CtBP1 (C-terminal binding protein 1), mouse, full length, HA-tagged and Flag-tagged copies (mouse) (UniProt O88712)
Experiment: co-IP; competition: 50 µM synthetic CtBP peptide added to the COS7 lysate holding CtBP1-HA and CtBP1-Flag, with 10 mM lactate + 10 µM NADH, 37 °C, 20 min; IP with anti-Flag, blot with anti-HA; only the binder purified

## GRKKRRQRRRCVEETADSTLCHILNLYRRTTWLHQALREG [CtBP peptide (Tat sequence fused to amino acids 114-142 of the long form of mouse CtBP1)]
  binding: binds
